These are yes or no findings as the source states them, for the method shown. Binding seen in cells or lysates may run through a third protein. Here binding means that the protein was enriched with, or labelled near, the bait; the list need not be complete.
What follows are substances tested against LRRC8A-BirA*-HA fusion protein (human) (UniProt Q8IWT6) (assay: proximity labelling; BioID: HEK293 cells stably expressing LRRC8A-BirA*-HA (two clones), 50 uM biotin 24 h, RIPA lysis, streptavidin bead pull-down of biotinylated proteins, TMT labelling and LC-MS/MS; hits: FDR <= 0.05 and fold change >= 2 against the no-biotin control).

Sequences of proteins named here, by UniProt entry; tags and fusion partners are left off. A change or cut given only in a name is not applied to a line headed by its entry. A line that says so, or that is headed by a name, gives the form on record, which may keep a tag or linker.
UniProt Q8IWT6: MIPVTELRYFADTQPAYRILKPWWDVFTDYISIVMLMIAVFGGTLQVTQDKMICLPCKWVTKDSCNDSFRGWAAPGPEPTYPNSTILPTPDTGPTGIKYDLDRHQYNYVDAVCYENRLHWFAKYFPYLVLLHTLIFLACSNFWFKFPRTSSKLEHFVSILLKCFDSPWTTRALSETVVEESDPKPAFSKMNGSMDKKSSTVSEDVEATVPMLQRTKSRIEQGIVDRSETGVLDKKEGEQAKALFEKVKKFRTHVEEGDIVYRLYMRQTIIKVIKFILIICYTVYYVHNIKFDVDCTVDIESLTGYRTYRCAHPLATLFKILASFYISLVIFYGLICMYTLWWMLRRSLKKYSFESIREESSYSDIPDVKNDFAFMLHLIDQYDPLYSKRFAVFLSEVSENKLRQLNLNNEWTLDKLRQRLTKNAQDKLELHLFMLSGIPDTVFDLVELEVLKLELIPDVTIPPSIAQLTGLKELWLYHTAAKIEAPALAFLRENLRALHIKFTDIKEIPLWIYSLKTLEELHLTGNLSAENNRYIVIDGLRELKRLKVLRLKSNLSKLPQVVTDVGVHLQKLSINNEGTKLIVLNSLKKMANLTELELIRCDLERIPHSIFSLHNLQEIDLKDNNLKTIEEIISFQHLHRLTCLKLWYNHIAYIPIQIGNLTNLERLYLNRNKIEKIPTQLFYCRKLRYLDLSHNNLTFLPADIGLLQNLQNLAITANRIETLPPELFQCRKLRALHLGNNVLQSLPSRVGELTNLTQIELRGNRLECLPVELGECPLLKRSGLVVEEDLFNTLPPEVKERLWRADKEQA
Microtubule-actin cross-linking factor 1, isoforms 1/2/3/5 (Q9UPN3-2, form named): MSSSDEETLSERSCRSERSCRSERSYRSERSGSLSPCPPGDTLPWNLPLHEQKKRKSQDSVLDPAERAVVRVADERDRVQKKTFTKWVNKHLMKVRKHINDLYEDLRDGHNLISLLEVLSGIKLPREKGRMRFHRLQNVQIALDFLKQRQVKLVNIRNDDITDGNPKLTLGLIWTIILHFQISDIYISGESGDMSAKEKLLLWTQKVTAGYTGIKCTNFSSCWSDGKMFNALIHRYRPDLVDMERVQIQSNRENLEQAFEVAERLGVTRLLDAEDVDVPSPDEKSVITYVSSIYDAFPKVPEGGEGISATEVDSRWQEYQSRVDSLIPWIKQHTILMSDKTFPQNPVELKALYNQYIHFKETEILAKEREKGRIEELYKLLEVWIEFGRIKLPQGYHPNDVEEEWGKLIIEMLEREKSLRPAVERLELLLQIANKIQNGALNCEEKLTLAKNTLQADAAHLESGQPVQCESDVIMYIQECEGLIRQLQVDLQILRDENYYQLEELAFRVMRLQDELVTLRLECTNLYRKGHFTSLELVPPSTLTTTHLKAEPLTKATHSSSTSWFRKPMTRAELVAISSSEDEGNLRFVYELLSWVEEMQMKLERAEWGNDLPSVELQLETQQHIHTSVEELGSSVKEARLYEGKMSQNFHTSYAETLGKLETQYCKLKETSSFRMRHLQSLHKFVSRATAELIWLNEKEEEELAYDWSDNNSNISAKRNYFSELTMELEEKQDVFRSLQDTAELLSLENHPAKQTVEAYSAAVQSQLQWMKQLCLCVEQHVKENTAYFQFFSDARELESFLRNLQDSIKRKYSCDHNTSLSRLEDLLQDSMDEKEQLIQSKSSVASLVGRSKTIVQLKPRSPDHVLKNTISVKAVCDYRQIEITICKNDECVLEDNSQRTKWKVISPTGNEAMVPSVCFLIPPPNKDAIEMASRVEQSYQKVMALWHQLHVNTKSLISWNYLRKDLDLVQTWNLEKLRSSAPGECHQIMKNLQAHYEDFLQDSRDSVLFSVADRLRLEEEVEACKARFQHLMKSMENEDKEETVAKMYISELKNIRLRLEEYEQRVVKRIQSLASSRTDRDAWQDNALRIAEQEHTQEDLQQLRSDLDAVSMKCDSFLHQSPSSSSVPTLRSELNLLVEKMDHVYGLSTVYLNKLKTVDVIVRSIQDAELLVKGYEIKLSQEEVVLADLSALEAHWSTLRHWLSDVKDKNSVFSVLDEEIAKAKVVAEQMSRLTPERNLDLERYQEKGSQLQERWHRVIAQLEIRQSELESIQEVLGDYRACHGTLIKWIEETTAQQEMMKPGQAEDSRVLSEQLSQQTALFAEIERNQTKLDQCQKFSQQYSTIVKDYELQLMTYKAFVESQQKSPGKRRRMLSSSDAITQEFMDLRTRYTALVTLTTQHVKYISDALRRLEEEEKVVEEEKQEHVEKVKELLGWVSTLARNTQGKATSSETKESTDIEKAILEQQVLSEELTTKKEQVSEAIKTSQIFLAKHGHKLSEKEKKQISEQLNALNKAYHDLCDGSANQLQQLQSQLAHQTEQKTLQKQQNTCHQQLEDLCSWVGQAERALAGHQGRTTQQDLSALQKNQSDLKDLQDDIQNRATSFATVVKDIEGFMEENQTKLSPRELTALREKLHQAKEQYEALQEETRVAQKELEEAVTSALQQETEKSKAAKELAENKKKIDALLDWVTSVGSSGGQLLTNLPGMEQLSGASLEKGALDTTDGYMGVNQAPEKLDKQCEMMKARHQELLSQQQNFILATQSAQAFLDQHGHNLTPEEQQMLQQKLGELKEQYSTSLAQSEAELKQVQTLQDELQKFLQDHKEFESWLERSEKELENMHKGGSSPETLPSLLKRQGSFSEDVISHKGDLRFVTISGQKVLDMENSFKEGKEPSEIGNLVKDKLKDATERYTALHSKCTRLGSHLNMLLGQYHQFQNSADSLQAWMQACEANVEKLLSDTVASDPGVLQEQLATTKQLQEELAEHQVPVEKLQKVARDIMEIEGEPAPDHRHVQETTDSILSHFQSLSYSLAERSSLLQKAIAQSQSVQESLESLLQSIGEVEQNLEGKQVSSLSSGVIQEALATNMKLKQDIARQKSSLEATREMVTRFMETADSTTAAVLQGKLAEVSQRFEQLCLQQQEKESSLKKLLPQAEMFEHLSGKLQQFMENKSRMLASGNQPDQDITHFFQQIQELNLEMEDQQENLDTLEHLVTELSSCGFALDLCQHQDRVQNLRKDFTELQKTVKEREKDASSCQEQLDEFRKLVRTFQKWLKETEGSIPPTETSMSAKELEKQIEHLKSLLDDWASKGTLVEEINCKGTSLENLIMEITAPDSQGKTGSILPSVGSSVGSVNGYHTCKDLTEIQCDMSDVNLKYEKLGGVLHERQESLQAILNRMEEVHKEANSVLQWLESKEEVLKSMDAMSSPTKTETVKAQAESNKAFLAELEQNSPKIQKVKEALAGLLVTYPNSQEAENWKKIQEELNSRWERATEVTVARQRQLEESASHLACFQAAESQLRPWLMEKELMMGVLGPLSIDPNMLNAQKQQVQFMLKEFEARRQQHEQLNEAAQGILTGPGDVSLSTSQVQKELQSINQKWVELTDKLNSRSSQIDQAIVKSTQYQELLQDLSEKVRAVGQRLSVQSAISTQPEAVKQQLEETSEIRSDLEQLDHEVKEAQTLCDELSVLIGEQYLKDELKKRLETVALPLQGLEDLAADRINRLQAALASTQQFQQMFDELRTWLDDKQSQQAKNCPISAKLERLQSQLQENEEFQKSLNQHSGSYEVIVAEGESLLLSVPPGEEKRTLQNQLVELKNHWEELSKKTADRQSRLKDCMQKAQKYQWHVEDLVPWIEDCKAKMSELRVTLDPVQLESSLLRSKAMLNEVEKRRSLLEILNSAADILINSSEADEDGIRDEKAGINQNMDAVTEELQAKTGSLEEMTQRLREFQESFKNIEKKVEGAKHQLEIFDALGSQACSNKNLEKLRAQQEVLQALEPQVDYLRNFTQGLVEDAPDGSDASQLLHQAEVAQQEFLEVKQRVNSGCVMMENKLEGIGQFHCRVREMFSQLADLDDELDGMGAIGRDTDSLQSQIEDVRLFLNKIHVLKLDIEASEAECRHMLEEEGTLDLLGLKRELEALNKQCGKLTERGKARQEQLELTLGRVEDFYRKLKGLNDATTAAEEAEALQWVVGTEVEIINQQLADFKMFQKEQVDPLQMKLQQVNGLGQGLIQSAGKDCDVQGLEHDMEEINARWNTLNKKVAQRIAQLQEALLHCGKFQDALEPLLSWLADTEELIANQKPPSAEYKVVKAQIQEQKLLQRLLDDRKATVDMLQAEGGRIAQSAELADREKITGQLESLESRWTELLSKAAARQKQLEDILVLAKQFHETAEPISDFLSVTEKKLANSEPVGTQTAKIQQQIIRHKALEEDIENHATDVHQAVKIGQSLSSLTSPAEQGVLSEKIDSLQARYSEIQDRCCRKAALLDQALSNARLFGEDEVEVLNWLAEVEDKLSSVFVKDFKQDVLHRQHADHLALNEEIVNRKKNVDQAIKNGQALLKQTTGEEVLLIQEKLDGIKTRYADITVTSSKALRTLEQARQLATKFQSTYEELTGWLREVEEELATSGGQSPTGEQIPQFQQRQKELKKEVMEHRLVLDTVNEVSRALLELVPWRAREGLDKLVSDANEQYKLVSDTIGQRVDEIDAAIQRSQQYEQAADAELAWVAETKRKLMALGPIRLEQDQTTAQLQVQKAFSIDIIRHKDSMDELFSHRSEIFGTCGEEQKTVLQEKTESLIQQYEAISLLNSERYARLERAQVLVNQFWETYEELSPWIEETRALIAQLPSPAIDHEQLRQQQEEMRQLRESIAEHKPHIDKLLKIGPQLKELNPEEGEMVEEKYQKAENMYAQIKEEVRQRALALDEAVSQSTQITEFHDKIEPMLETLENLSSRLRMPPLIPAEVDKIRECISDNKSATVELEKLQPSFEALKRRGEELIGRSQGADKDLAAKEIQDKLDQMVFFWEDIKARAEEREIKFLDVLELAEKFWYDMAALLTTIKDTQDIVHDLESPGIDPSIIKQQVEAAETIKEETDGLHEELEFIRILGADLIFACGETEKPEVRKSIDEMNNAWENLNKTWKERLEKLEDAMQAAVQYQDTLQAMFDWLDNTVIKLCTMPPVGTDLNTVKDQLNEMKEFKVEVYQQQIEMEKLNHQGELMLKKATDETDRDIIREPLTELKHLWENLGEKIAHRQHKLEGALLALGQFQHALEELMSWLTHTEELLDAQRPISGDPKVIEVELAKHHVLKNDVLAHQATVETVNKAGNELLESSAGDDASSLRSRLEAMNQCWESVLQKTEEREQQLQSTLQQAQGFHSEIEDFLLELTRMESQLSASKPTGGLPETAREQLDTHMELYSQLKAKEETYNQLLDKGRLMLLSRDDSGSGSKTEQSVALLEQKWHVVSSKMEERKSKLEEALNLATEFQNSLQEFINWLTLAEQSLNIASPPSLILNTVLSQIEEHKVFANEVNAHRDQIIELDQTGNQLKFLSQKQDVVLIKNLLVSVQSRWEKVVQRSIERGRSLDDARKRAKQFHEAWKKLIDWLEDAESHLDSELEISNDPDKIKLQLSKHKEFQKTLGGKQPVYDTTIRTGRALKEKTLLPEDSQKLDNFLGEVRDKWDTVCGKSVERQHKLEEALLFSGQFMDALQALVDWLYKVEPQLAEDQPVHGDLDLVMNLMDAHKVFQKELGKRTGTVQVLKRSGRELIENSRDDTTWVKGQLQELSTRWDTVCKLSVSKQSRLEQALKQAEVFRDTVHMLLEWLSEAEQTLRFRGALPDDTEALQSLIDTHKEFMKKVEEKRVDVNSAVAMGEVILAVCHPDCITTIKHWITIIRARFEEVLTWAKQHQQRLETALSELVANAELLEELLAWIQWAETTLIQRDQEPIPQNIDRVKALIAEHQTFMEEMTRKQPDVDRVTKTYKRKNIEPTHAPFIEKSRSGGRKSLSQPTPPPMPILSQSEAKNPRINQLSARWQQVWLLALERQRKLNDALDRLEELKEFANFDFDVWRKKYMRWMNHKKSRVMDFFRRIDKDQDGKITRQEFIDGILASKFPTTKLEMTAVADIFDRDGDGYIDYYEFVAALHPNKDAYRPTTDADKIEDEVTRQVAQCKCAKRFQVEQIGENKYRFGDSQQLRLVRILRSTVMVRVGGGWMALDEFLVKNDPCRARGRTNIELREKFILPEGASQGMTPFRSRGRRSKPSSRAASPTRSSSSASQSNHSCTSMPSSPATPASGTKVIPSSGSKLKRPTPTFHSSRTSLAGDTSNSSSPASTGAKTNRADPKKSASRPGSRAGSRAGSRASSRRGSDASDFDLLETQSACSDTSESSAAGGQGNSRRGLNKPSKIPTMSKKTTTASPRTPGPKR

binding, binds:
Protein 4.1 (from UniProt P11171-1 1-864)
RuvB-like 1 (from UniProt Q9Y265-1 1-456)
Beta-adducin (from UniProt P35612-1 1-726)
Protein NDRG1 (from UniProt Q92597-1 1-394)
EZR, a member of the ERM protein family (from UniProt P15311 1-586)
Spectrin alpha chain, non-erythrocytic 1 (from UniProt Q13813-2 1-2477)
Fermitin family homolog 2 (from UniProt Q96AC1-3 1-687)
Plasma membrane calcium-transporting ATPase 1 (from UniProt P20020-3 1-1220)
Tyrosine-protein phosphatase non-receptor type 13 (from UniProt Q12923-4 1-2490)
Neuroblast differentiation-associated protein AHNAK (from UniProt Q09666-1 1-5890)
Unconventional myosin-VI (from UniProt Q9UM54-1 1-1285)
Afadin (from UniProt P55196-3 1-1743)
Stromal interaction molecule 1 (from UniProt Q13586 23-685)
Leucine-rich repeat-containing protein 7 (from UniProt Q96NW7 1-1575)
Transforming acidic coiled-coil-containing protein 1 (from UniProt O75410-1 1-805)
Liprin-beta-1 (from UniProt Q86W92-1 1-1011)
Torsin-1A-interacting protein 1 (from UniProt Q5JTV8-3 1-584)
Palmitoyltransferase ZDHHC5 (from UniProt Q9C0B5-1 1-715)
Serine/threonine-protein kinase PAK 4 (from UniProt O96013-1 1-591)
Cation-independent mannose-6-phosphate receptor (from UniProt P11717 41-2491)
Rho GTPase-activating protein 21 (from UniProt Q5T5U3-1 1-1958)
Synaptosomal-associated protein 23 (from UniProt O00161-1 1-211)
Delta14-sterol reductase (lamin-B receptor) (from UniProt Q14739 1-615)
Microtubule-actin cross-linking factor 1, isoforms 1/2/3/5 (from UniProt Q9UPN3-2 1-5430)
Desmoglein-2 (from UniProt Q14126 50-1118)
Girdin (from UniProt Q3V6T2-3 1-1870)
Serine/threonine-protein kinase N2 (from UniProt Q16513-1 1-984)
Gap junction alpha-1 protein (from UniProt P17302 1-382)
Zinc finger CCCH-type antiviral protein 1 (from UniProt Q7Z2W4-1 1-902)
Tyrosine-protein kinase transmembrane receptor ROR2 (from UniProt Q01974 34-943)
Kinase D-interacting substrate of 220 kDa (from UniProt Q9ULH0-1 1-1771)
F-BAR domain only protein 2 (from UniProt Q0JRZ9-1 1-810)
Lipopolysaccharide-responsive and beige-like anchor protein (from UniProt P50851-1 1-2863)
Band 4.1-like protein 3 (from UniProt Q9Y2J2-1 1-1087)
Vesicle-associated membrane protein-associated protein B/C (from UniProt O95292-1 1-243)
Nectin-2 (from UniProt Q92692-1 32-538)
Pseudopodium-enriched atypical kinase 1 (from UniProt Q9H792 1-1746)
Rap guanine nucleotide exchange factor 6 (from UniProt Q8TEU7-4 1-1609)
Zinc finger FYVE domain-containing protein 16 (from UniProt Q7Z3T8-1 1-1539)
Golgi resident protein GCP60 (from UniProt Q9H3P7 1-528)
Protein scribble homolog (from UniProt Q14160-3 1-1655)
Utrophin (from UniProt P46939-1 1-3433)
4F2 cell-surface antigen heavy chain (from UniProt P08195-5 1-631)
Band 4.1-like protein 2 (from UniProt O43491-1 1-1005)
Serine/threonine-protein kinase VRK2 (from UniProt Q86Y07-1 1-508)
Fatty aldehyde dehydrogenase (from UniProt P51648-2 1-508)
Multidrug resistance-associated protein 5 (from UniProt O15440-1 1-1437)
Sorting nexin-1 (from UniProt Q13596-3 1-557)
Golgin subfamily B member 1 (from UniProt Q14789-2 1-3269)
Rapamycin-insensitive companion of mTOR (from UniProt Q6R327-3 1-1732)

Source: article PMC11193767
